Test results as given in patent US20110171215A1.
Results are given in words; binding and its absence hold for the method and conditions named. Some entries that bind do so weakly or less than the wild type.

Chains of the proteins cited; added tags and fusions are not shown. Lines headed by an entry give the natural chain unless they say otherwise; changes in a name come on top. Residues count along the entry.
UniProt Q15116, residues 25-170: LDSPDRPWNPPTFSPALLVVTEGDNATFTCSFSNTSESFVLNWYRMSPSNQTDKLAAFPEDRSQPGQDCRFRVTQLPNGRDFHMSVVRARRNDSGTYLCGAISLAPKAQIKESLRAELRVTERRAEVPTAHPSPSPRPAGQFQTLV
UniProt P24161: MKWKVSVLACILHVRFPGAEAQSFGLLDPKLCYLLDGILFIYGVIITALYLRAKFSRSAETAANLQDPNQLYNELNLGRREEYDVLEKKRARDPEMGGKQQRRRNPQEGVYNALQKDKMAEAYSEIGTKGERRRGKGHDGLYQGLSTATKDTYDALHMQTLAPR
UniProt P31041: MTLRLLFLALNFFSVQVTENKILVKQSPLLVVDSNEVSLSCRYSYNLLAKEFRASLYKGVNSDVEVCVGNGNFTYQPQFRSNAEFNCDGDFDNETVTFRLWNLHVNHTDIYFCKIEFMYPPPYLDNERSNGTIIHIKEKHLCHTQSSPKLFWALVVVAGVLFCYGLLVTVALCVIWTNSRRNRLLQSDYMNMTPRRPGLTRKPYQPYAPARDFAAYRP

How the values were obtained:
[1] = target: Monomeric soluble human PD-1 (human) (UniProt Q15116); experiment: SPR; antibody captured by rabbit anti-mouse Fc, soluble PD-1 injected to saturating levels
[2] = target: hPD-1/mCD3ζWT/mCD28 chimera expressed in DO11.10 cells (human; mouse) (UniProt Q15116+P24161+P31041); experiment: told with the IL-2 release assay on DO11.10 cells carrying the chimera
[3] = target: human PD-1 extracellular region / murine CD28 chimera, mutant V18R, on HEK-293T cells (human; mouse) (UniProt Q15116+P31041); experiment: flow cytometry on transfected HEK-293T cells
[4] = target: Monomeric soluble human PD-1 (human) (UniProt Q15116); experiment: SPR (FIG. 12)
[5] = target: human PD-1 extracellular region / murine CD28 chimera, mutant R118D, on HEK-293T cells (human; mouse) (UniProt Q15116+P31041); experiment: flow cytometry on transfected HEK-293T cells
[6] = target: human PD-1 extracellular region / murine CD28 chimera, mutant L16R, on HEK-293T cells (human; mouse) (UniProt Q15116+P31041); experiment: flow cytometry on transfected HEK-293T cells

binding [1] | binding [2] | binding [3] | binding [4] | binding [5] | binding [6] | Binder
binds |  |  |  |  |  | Clone 2 anti-PD-1 antibody (antibody, V domains shown) VH: QVQLQQPGAELVKPGASVKLSCKASGYTFTTYYLYWVRQRPGQGLEWIGGINPSNGGTNFNEKFKSKATLTVDKSSSTAYMQLNSLTSEDSAVYYCTRRDYRYDRGFDYWGQGTSVTV VL: DIVLTQSPASLAVSLGQRATISCRASKSVSTSGFNYIHWYQQKPGQPPKLLIYLASNLESGVPARFSGSGSGTDFTLNIHPVEDEDAATYYCQHSRELPLTFGAGTKLEIK
binds | binds | binds |  |  |  | Clone 19 anti-PD-1 antibody (antibody, IgG1, V domains shown) VH: QVQLQQSGAELVKPGASVKMSCKAFGYTFTTYPIEWMKQNHGKSLEWIGNFHPYNDDTKYNEKFKGKAKLTVEKSSTTVYLELSRLTSDDSAVYYCARENYGSHGGFVYWGQGTLVTV VL: ENVLTQSPAIMSASPGEKVTMTCRASSSVISSYLHWYQQKSGASPKLWIYSTSNLASGVPDRFSGSGSGTSYSLTISSVEAEDAATYYCQQYNGYPLTFGAGTKLEIK
binds |  | binds | binds | binds | binds | Clone 10 anti-PD-1 antibody (antibody, IgG1, V domains shown) VH: DVQLQESGPGLVKPSQSLSLTCTVTGYSITSDYAWNWIRQFPGNKLEWMGYINYSGSTSYNPSLKSRISITRDTSKNQFFLQLNSVTTEDTATYYCARWIGSSAWYFDVWGAGTTVTV VL: DVLMTQTPLSLPVSLGDQASISCRSGQNIVHSNGNTYLEWYLQKPGQSPKLLIYKVSNRFFGVPDRISGSGSGTDFTLKISRVEAEDLGVYFCFQGSHVPFTFGSGTKLEIK
